The test has as its target T1, wild type GSI motif peptide (…), SMRT amino acids 1450-1469 with an amino-terminal cysteine.
T1 sequence (peptide, BODIPY-TMR coupled to the N-terminal cysteine): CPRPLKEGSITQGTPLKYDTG
Nature of the test: fluorescence polarisation; fluorescence anisotropy; BODIPY-TMR-labelled peptide at 1 uM, HDAC in 2-fold serial dilution; 1x PBS, 0.01% Triton X-100, 0.1 mg/ml BSA; one-site binding fit; in Fig. 4A HDAC4 also preincubated 30 min with inhibitor at 2:1 (suberoylanilide hydroxamic acid, trichostatin A, valproic acid, sodium butyrate); both purified.

No constants are given. Whether binding was seen depends on the method and setting. Binding can be weak; no strength is given.

Take “HDAC9 catalytic domain (domain or fragment)”: the binding entry is recorded as “binds”.

The values above are taken from PMC4505066, “Insights into the Recruitment of Class IIa Histone Deacetylases (HDACs) to the SMRT/NCoR Transcriptional Repression Complex” (The Journal of Biological Chemistry, 2015).
